According to US20040191918A1, “Evaluation of bitterness of active drugs” (priority 2003, published 2004):
Some results come without the dose or concentration used.

How the values were obtained:
[1] = In vivo bitterness evaluation by a human panel of tasters; conditions: aqueous solution, concentration per sample (Conc. mg/ml column), scale 1 to 20; for In Vivo(Panel) Bitterness Index Average Index: training samples; for In Vivo(Panel) Bitterness Value Average Index: validation samples
[2] = Bitterness measured with calibrated α Astree electronic tongue (seven ISFET sensors, PLS conversion relationship); conditions: 8 training samples, calculated with the conversion relationship optimising correlation (PLS), scale 1 to 20

Cn1c(=O)c2c(ncn2C)n(C)c1=O [CA14, Caffeine]
In Vivo(Panel) Bitterness Index Average Index [1]: 2.5
“Measured” Bitterness Average Index [2]: 3.1

Cn1c(=O)c2c(ncn2C)n(C)c1=O [CA16, Caffeine]
In Vivo(Panel) Bitterness Index Average Index [1]: 8.5
“Measured” Bitterness Average Index [2]: 6.3

NC(N)=Nc1nc(CSCCC(N)=NS(N)(=O)=O)cs1 [FA01, Famotidine]
In Vivo(Panel) Bitterness Value Average Index [1]: 4.2

NC(N)=Nc1nc(CSCCC(N)=NS(N)(=O)=O)cs1 [FA02, Famotidine]
In Vivo(Panel) Bitterness Value Average Index [1]: 9

CN(C)C(=O)C(CCN1CCC(O)(c2ccc(Cl)cc2)CC1)(c1ccccc1)c1ccccc1 [LO20, Loperamide]
In Vivo(Panel) Bitterness Value Average Index [1]: 14.0

CN(C)C(=O)C(CCN1CCC(O)(c2ccc(Cl)cc2)CC1)(c1ccccc1)c1ccccc1 [LO21, Loperamide]
In Vivo(Panel) Bitterness Value Average Index [1]: 7.5

CC(=O)Nc1ccc(O)cc1 [PA03, Paracetamol]
In Vivo(Panel) Bitterness Index Average Index [1]: 17
“Measured” Bitterness Average Index [2]: 14.1

CC(=O)Nc1ccc(O)cc1 [PA09, Paracetamol]
In Vivo(Panel) Bitterness Index Average Index [1]: 10
“Measured” Bitterness Average Index [2]: 13.6

C[C@]12C=CC(=O)C=C1CC[C@@H]1[C@@H]2[C@@H](O)C[C@@]2(C)[C@H]1CC[C@]2(O)C(=O)CO [PR25, Prednisolone]
In Vivo(Panel) Bitterness Index Average Index [1]: 17
“Measured” Bitterness Average Index [2]: 17.3

C[C@]12C=CC(=O)C=C1CC[C@@H]1[C@@H]2[C@@H](O)C[C@@]2(C)[C@H]1CC[C@]2(O)C(=O)CO [PR26, Prednisolone]
In Vivo(Panel) Bitterness Index Average Index [1]: 13.5
“Measured” Bitterness Average Index [2]: 14.5
